Experimental data from patent publication US20240207355A1 (L-BASE CO., LTD., priority 2021, published 2024).

Test: peptide made by a vendor (solution-phase peptide synthesis; HATU, N,N-Diisopropylethylamine)
Conditions: late stage modification step

Q: With 2-PhPh-AQTGTGKT as the substance, how does the step yield read?
A: 31% yield

Q: With 3-PhPh-AQTGTGKT as the substance, how does the “final purity (method not given)” value read?
A: over 90%

Q: And the step yield?
A: 5% yield

Q: With 4-MeOPh-AQTGTGKT as the substance, how does the “final purity (method not given)” value read?
A: 89%

Q: And the step yield?
A: 10% yield

Q: For Ac-AQTGTGKT, which step yield is on record?
A: 37% yield

Q: Which step yield does the source give for Naphthyl-AQTGTGKT here?
A: 33% yield

Q: For Ph-AQTGTGKT, which step yield is on record?
A: 33% yield
